Source: PMC10502413
These are yes or no findings as the source states them, for the method shown. In cells and extracts the contact can be indirect. Some binding calls cover weakened binding; strength is not graded here.

Sequences of proteins named here, by UniProt entry; tags and fusion partners are left off. A change or cut given only in a name is not applied to a line headed by its entry. A line that says so, or that is headed by a name, gives the form on record, which may keep a tag or linker.
Flag-tagged NRF1 (1–296) (Q14494, form named): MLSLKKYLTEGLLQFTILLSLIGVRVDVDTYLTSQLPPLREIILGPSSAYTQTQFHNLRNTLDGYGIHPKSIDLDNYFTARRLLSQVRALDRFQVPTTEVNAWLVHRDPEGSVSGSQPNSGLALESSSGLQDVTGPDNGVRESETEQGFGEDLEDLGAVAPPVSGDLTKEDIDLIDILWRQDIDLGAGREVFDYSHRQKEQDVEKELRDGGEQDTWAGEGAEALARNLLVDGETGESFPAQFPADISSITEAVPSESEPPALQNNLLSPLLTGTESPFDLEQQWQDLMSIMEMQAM
UniProt Q5TDH0: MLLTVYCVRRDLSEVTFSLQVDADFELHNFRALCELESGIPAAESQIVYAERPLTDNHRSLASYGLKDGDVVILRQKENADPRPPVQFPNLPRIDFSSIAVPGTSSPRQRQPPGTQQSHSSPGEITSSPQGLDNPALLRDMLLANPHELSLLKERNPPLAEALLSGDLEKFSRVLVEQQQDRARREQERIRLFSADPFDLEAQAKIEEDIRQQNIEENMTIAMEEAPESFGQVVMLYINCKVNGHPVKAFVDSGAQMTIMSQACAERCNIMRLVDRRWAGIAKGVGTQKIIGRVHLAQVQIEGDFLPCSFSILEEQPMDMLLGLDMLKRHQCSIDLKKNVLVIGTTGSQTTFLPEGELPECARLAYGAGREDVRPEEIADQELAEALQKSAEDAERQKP
UniProt P54727: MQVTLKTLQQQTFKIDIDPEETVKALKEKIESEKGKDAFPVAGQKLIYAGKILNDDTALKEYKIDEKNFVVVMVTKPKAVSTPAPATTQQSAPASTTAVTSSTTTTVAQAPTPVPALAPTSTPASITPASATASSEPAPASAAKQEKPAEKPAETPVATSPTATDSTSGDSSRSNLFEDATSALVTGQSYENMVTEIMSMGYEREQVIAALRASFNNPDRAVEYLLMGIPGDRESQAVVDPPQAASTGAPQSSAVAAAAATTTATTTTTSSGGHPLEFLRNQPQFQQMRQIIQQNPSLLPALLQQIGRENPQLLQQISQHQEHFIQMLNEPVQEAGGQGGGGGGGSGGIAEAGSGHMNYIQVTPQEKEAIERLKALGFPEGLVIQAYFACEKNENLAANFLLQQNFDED
UniProt P54725: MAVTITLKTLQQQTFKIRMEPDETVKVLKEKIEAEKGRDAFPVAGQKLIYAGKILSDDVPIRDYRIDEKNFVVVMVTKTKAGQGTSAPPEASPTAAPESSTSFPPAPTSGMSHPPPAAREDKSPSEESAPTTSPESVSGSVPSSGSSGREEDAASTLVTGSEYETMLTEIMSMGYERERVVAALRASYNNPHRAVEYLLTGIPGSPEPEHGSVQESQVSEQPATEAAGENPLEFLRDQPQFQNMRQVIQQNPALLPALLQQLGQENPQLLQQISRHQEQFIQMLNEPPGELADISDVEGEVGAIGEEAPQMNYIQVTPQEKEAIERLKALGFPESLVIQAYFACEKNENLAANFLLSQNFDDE

What was measured:
Flag-tagged NRF1 (1–296) = Flag-tagged NRF1 (1–296) (UniProt Q14494); assay: co-IP; Flag-tagged NRF1 constructs expressed in wild-type (sgLuci) and DDI2 knock-out (sgDDI2) HEK293T; anti-FLAG M2 agarose, 2 h at 4°C; lysis buffer 0.2% NP-40, 20 mM Tris-HCl pH 7.4, 150 mM NaCl; Rad23A and Rad23B seen by Western blot
[1] = molecular target: flag-tagged wild-type DDI2 (human) (UniProt Q5TDH0); assay: co-IP; flag-tagged DDI2 wild-type or D252A expressed in DDI2-deficient HEK293T; anti-FLAG M2 agarose, 2 h at 4°C; lysis buffer 0.2% NP-40, 20 mM Tris-HCl pH 7.4, 150 mM NaCl; Rad23B seen by Western blot
[2] = molecular target: flag-tagged DDI2 proteolytically inactive (D252A) (human) (UniProt Q5TDH0); assay: as above

Row | Substance | binding (Flag-tagged NRF1 (1–296)) | binding [1] | binding [2]
1 | Rad23B (from UniProt P54727 1-409) | binds | binds | binds
2 | Rad23A (from UniProt P54725 1-363) | binds |  | 
